The values that follow come from paper PMC8468769.

Protein sequences, listed by entry. Tags and fused reporters are not part of them. Lines headed by an entry give the natural chain unless they say otherwise; changes in a name come on top.
UniProt F7VN14: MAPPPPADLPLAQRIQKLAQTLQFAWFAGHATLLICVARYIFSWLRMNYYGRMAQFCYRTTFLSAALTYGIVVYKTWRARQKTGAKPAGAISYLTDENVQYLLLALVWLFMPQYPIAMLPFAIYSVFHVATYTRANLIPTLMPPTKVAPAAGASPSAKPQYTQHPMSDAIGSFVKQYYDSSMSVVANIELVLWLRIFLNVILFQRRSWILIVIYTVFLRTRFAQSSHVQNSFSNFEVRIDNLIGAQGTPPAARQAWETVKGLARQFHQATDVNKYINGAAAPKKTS

Results are given in words; binding and its absence hold for the method and conditions named. In cells and extracts the contact can be indirect. Here binding means that the protein was enriched with, or labelled near, the bait; the list need not be complete.

The chains are these.
B1: C-4 methylsterol oxidase (SMAC_00952) (protein, UniProt F7VNJ9 1-306)
chain: MATAVLNATVAGLSSTDTYFTVLEEVSKYNVQLSYVEKLWAAWYLWMQNDTLATGLMSFFMHEIVYFGRSIPWMIIDALPMFNKYKLQKGKRPTWKEQFECAGLVLLSHCTVELPQIWLFHPIATYFGLDYGVPFPPLWKMALHICIFFVMEDAWHYWFHRALHYGPLYKAIHKIHHTYSAPFGLAAEYASPIEVMLLGIGTVGSPILWVSFTKDLHLATMYVWIVLRLFQAIDAHSGYDFPFSLRHILPFWAGADHHDMHHERFIGNYASSFRWWDYCLDTEAGDVAAKARREKKLAAIKAKKAQ
B2: squalene monooxygenase (SMAC_00934) (protein, UniProt F7VNI0 1-524)
chain: MTIETDSAEVRNAQRREQHHEADVVIVGAGVFGCAAAYALANQGRSVILLERWMHEPDRIVGELLQPGGLQALQSFGLGHCVEGIDAITCYGYHVVFHGEEVAIPYPVVDDQGKVYSGEAAARVESTTTTTTSTPNGKTHNGPKLRRPEGRSFHHGRFISQLRKACAAHPNITMFETTVTSVIRGSHSEQVLGVETLTTDRETGEKQPDFFFGQLTLIADGYDSKFRKQLLPSGTTPVVRSKFYALELIDCPFPPSNYGHVVIGKTSPVLLYQIGTHETRALIDIPHNLTAASAANGGVRGYIENIVVPTLPESVRPSVLASLKDGKIPRSMPNSYLPASGKANTSRTPGVLLLGDAYNMRHPLTGGGMTVAFSDVVLLASLLHPDRVPNLADANAVEQAMKEFHWRRKAWTSIINTLAQALYSLFAADDWQLDALRKGCFAYFQMGGAKTDEPVALMGGLLHEPTVLARHFFTVAFVAIWLHWCERVGSFWGLWKAPLLLVDAVLILWRACVVFLPTIWKEAV
B3: dolichyl-phosphate-mannose-protein mannosyltransferase (SMAC_06805) (protein, UniProt F7VSQ7 1-1145)
chain: MARSGKKSPAPPPAYAPAYAPPPAYEAVPTSAVVFKTKNNKNKSVKVKDDYSSDGVQDNDPFLLPGSDFTLLTITTIVSAIVRLFRIYQPSSVVFDEVHFGGFASKYIKGKFFMDVHPPLAKLMITLFGWLAGFDGNFDFKEIGKDYIEPGVPYVAMRMFPAICGILLAPTMFLTLKAAGCRSTTAFLGAGLIIFENGLLTQARLILLDSPLMIGTALTALGFTAFTNQQELGPAKAFTPSWWFWLAITGLGLGITASIKWVGLFTIAWVGSLTLIQLWVVLGDYKHVSPRAFTKHFMARAFCLIVIPLSFYLAMFGIHFLCLTNPGEGDGFMSSEFQSTLNSKGMQDVPADILMGSRVTIRHVNTQGGYLHSHPLMYPTGSKQQQITLYPHKDDNNIWLLENQTQPLGIDGQPINGTSAWNNLPETPYIKDGAILRLYHLPTHRRLHSHDVRPPVTEADWQNEVSAYGYEGFDGDANDFFRVEIVKKKSKGGVAQERLRTIDTKFKLVHIMTGCVLFSHKVKLPDWASEQQEVTCAKGGSLPNSLWYIESNDHPQLGADAEKVNYRNPGFFGKFWELQKVMWKTNAGLVESHAWDSRPEAWPILRRGINFWGRQHRQVYLMGNPIIWWSATAAVVLYVLFKGIAILRWQRSCNDYANPIFKRFDYEVGTSVLGWALHYFPFYLMQRQLFLHHYFPALYFAIIAFCQVFDFLTARISLVKDKVIFNRLGAVLFLALSMVVFWLFSPLAYGNPWTKAECKRVKLFSTWDFDCNTFPDSYDNYYGITPTSQAPSQTPVATPERPVVANAPPQAQKPIANQEQQAAKQEPSANPVGQRVISKEEKVEYRDQDGNLLNEEQVEALKGKVEFKTKYETRTRVIDANGNEIQLGGSGAPKVVPAPKASQPVAPPHPDVQGVDQETSNVPAAEEAVPEAEKSVDGVKEAEEKVAKPASESNEATASQEVEQSEEVKAAQERIQKIVERIQKVADNVDNLKNNVVEKAGDKVEQVEEKAEQVAEKAQEAAEPAKEKAAEAAEKVAEKAEEATEQSKEKVESVVDNVKEKVAERAEQVQEKAAEKAEQVQEKAAEKAEQVQEKVAERAEQVQEKAQEAGEKAQEVVLEKADQVEKKAEQVGEKDQEKTEAKDEL
B4: dolichyl-phosphate-mannose-protein mannosyltransferase (SMAC_02375) (protein, UniProt F7VPD9 1-750)
chain: MAAPTVGSERATMVSGADPLGDAVRRRNVASVTPTAFETPQSVDNKKAVVPVKKEQSFLDSIASREWIIAPLVFTFLAFFTRFYKIGLSPIVTWDEAHFGKFGSHYLKREFYFDVHPPAGKLLVGLSGLLAGYNGSFEFKSGETYPEEINYTFMRQFNAFWGAVCVPMAYYTAKELRFKLPAVWLVTLMVLCENSYTTISRFILLDSMLLFGTVATTLCWAKFHNLRRKSFSPEWFSWLFLTGLSIGFVCSVKWVGLFVTALVGLYTVEDLWNKFGDVKMPPKVLAAHFAARVVGLIILPFAIYLMSFAIHFIVLTNSGPGDAQMPSLFQANLRGTEVGRDSPLELALGSRVTIKNMGYGGGLLHSHVQTYPEGSNQQQVTCYHHKDSNNDWFFYPNRREQAYDESSDEIRYIGDGSTVRLIHAQTGRNLHSHEIPAPMTKADKEVSCYGNLTVGDEKDHWKIEVVKDTNSRDRSKIRTLTTAFRLKHEVLGCYLRAGTVNLPQWGFKQIETTCTKTNNPRDTYTHWNVESHTNPKLPPAEPGQYKNQFFQDFIHLNVAMMTSNNALVPDPDKQDDLASQWWQWPILHVGLRMCSWDDKTVKYFLLGNPLVYWGSTAGLGVFGLLVIWYTLRWQRGYNELNQDSIDQIHYAGIYPVIGWFLHYLPFIVMGRVTYVHHYYPALYFAILSFGFLADWFFRGKSKLTQSIGFGILYATVIGLYIFFMPISWGMVGPNQQYKYMKWFDNWRISD
B5: cytochrome P450 4A5 (SMAC_05894) (protein, UniProt F7W3F4 1-540)
chain: MAFGAAHLQLWLGALVVLGAVYTTCLVVYRLFLHPLAKYPGPLLAKLTDGYMAYHAFKGDRHLEFWRMHEKYGKFVRFGPNSLSVNSNTALKEIYGFKANVRKAEFYDAFVHPAPNTHNARDRDLHARKRRVLAHAFSDSAVKEVERYILANIRTFCDAIGDLGRSTVTSGFALADKKGWSTPKNMSDWCNWLAMDILGDLCFGKAFHMLEKPDNRYAVDLVSVAAHRHLICGTMPMLDKLSLDKIFLRKIASGRAQYMAYSRQQLAERTALGDETDRRDFFYHLLKARDPETGQGFTTPELWGESNLLIIAGSDTTSTAMAATLFYLVRNPSALARVTQEIRSRFSSVEDIHQGPALQSCTYLRACVDEAMRLSPSVGGLLPREVLPGGITIDGEHVPQGTIVGVPHYTIHHNAAYYPDPWSFTPERWLPTSTSSVATEKGVTATEEQIQLAQSAFCPFSIGPRGCIGKGLAYIEMSITLARTLFLYDLRRAVGVEDAAEGGKEGAEYGRHRKGEMQLVDTFTSTKDGVMIEFRRRDDL
B6: squalene synthase (SMAC_07413) (protein, UniProt F7VM49 1-484)
chain: MGAFTKAAYFLLHPNQLRSIVQWKVWHDPVHKRDPSKETETEKACFRHLELTSRSFSAVIQELNPELLMPICLFYLVLRGLDTIEDDMTIDLAKKEPLLRGFADLMEIDGWTFTENGPNEKDRELLVHFDDVISELKKVKKPYYDIIREITVKMGNGMADYALNAEHNTNGVNTIEEYELYCHYVAGLVGEGLTRLFVESDLANPALLERMELTESMGQFLQKTNIIRDIHEDFVDKRRFWPKTIWSKYVNNWEDMFKLENREKALQCSSEMVLNALKHTEECLFYMAGIRDQSVFNFVAIPQAMAIATLELVFRNPAIFERNVKITKGDACQLMMESTQNLRVLCEVFRRYARRIHKKNDPRDPNYLAISVQCGKIEQFIESIFPTQDPKKIALTQVQNTNAESVNTMDTGETTFLVASVLGVLFVIGGLMMGAAWLMGARFDMAYDDITSRVGTLVKGAAEVSSVTVSSITSIPTTVVHQEL
B7: reticulon-like protein (SMAC_00989) (protein, UniProt F7VNL7 1-361)
chain: MADNYAPADNYTLSGHHSNGSANLNPGSTNLDALKNNAASAYDAVTKGPVAQNVADQGAKTVDELSNLSASRRTPSTPAATGQPLTHYHSFFSELLSWNNPRASAIAYLSVVAGIFFVRYFDVLRLGFKLTWMVLGATVAAEVAGRTVLNQGLTTQLRPRKYYTVSKQTLDSAIGDVHELVNFFVIEAQRVLFAENVYVSGLVALSAFFAYYLVKIVPYWGLALVSTTLAFLGPLVYKTNKEVIDAQLHRASDVIGAQTAQLKTVAQQNTEKATQLTKQYVGEYTAKAQTLVGKATPASLSGEDHTNGHANGHADNLSTLREADFPPAPRADIKTELAAPIEPVVAVPVTVKSGEQQPLLI

In the assay the target is SmPOM33-TagRFP-T (Sordaria macrospora) (UniProt F7VN14). Kind of assay: affinity purification with mass spectrometry; POM33-TagRFP-T precipitated from S. macrospora mycelium lysate (lysis buffer without NP-40) with anti-TagRFP-T antibody and Protein G Dynabeads, 4 °C; control free TagRFP-T strain; LC/MS with label-free quantification, FDR 0.01, S0 0.1; two experiments, seven samples.
B1: the binding entry is given as “binds”.
The value for B2 was “binds”.
The value for B3 was “binds”.
Take B4: the binding result is on record as “binds”.
B5: the binding result is given as “binds”.
The value for B6 was “binds”; that for B7 was “binds”.
